The exact form of at least one protein or probe is not confirmed. A negative result means that nothing was seen under these conditions. The comparison behind a weaker result is the experiment's own reference, which may not be listed here.

One series relates to His-TaSSRP1 (Triticum aestivum). Put plainly: EMSA. Conditions: EMSA: 1 ng biotin probe, 2 ug protein, 20 uL 1x binding buffer, 2.5% glycerol, 2 mM EDTA, 5 mM MgCl2, 50 mM KCl, 0.05% NP-40, poly(dI-dC) (printed '50 n'); recombinant protein; protein details: His (pET-32a, N-terminal vector tags); label: 5' biotin (both oligos listed biotinylated). In general terms: A gel shift assay detects complexes by their altered migration in electrophoresis.
With “TTTCTCTCTTACTCCAGATATGTCCGTTCTTCTCGTGTC (double strand) [IME-M4]”, the binding result is reported as “binds more weakly”.

With “TTTCTCTCTTACTCCAGATCTGGCCGTTCTTCTCGTGTC (double strand) [IME-M7]”, the binding result is given as “binds more weakly”.

“CGCATACACATGTGTTCTTCTACCTTCTCCATTCTCTCT (double strand) [IME-left]”: the binding result is “no binding”.

“CCCGACTCGATGCGGATTCGGGATCCTCTTGCTGCACGG (double strand) [IME-right]”: the binding result was “no binding”.

On to “TTTCTCTCTTACTCCAGCTCTGTCCGTTCTTCTCGTGTC (double strand) [IME-M2]”, for which the binding result is “binds more weakly”.

“TTTCTCTCTTACTCCAGATCGGTCCGTTCTTCTCGTGTC (double strand) [IME-M5]”: the binding result is on record as “binds more weakly”.

Still in this series, the particulars now being: unlabeled Cold-IME used as competitor (10-, 50-, 100-fold); EMSA: 1 ng biotin probe, 2 ug protein, 20 uL 1x binding buffer, 2.5% glycerol, 2 mM EDTA, 5 mM MgCl2, 50 mM KCl, 0.05% NP-40, poly(dI-dC) (printed '50 n'); recombinant protein; protein details: His (pET-32a, N-terminal vector tags); label: 5' biotin (both oligos listed biotinylated).
Take “TTTCTCTCTTACTCCAGATCTGTCCGTTCTTCTCGTGTC (double strand) [IME]”: the binding result is “binds”.

These data come from paper PMC11827615.
